Reference: the supplement of paper PMC6078165
Values are relative to the signal before dosing, not to a vehicle control; the signal also falls without drug.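 Fibroblast labels name human fibroblasts: mostly primary ones from tissues such as uterus (C12385, HUF), lung (H6013), bone (Hs27A), adrenal (HADF) and skin (WS1), plus mammary HMF and breast cancer-associated Hs343T. The cancer cells are basal-like or mesenchymal-like triple-negative breast cancer lines. The paper calls a changed response a hit when it shifts by more than 3x the replicate standard deviation. The tissue of the other fibroblasts is not given here.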

System: HCC1143
Experiment: relative JC-1 red fluorescence (viability) vs pre-drug, coculture with fibroblast (fraction); higher = more viable cancer cells
Method: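 JC-1 labelled TNBC cells cocultured 1:1 (1,500 cells each) with CellTrace Violet stained primary or stromal fibroblasts in 384-well plates in FluoroBrite medium, treated with one of 42 anticancer drugs at 0.1, 1, 10 or 100 uM. JC-1 red fluorescence (mitochondrial integrity in cancer cells only) was read by plate reader every 8 h for 72 h. Values are normalised to each well's pre-drug value. The stock of one drug was tenfold lower, so its dose labels may be too high.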

O=C(O)C1(C(=O)O)CCC1.[NH2-].[NH2-].[Pt+2] [Carboplatin]
relative JC-1 red fluorescence
Details	8 h	16 h	24 h	32 h	40 h	48 h	56 h	64 h	72 h
0.1 µM, coculture fibroblast: C12385	0.881	0.804	0.721	0.647	0.57	0.512	0.46	0.414	0.391
0.1 µM, coculture fibroblast: H6013	0.779	0.6808	0.639	0.616	0.551	0.527	0.49	0.468	0.44
0.1 µM, coculture fibroblast: H6019	0.797	0.7173	0.67	0.609	0.562	0.537	0.485	0.439	0.399
0.1 µM, coculture fibroblast: H6076	0.807	0.762	0.712	0.701	0.628	0.6226	0.5888	0.568	0.586
0.1 µM, coculture fibroblast: H6231	0.807	0.784	0.697	0.621	0.592	0.562	0.521	0.492	0.46
0.1 µM, coculture fibroblast: HADF	0.7137	0.629	0.587	0.591	0.498	0.467	0.43	0.4	0.381
0.1 µM, coculture fibroblast: HCFa	0.811	0.732	0.709	0.693	0.612	0.587	0.539	0.502	0.481
0.1 µM, coculture fibroblast: HCPF	0.802	0.792	0.722	0.651	0.632	0.604	0.564	0.534	0.517
0.1 µM, coculture fibroblast: HHSteC	0.819	0.733	0.703	0.677	0.596	0.559	0.524	0.494	0.457
0.1 µM, coculture fibroblast: HMF	0.808	0.813	0.744	0.705	0.649	0.623	0.588	0.563	0.54
0.1 µM, coculture fibroblast: HPFa	0.911	0.821	0.776	0.689	0.627	0.597	0.535	0.487	0.443
0.1 µM, coculture fibroblast: HUF	0.8622	0.7542	0.696	0.6119	0.5658	0.5408	0.4935	0.459	0.425
0.1 µM, coculture fibroblast: Hs5	0.834	0.8158	0.779	0.76	0.658	0.634	0.594	0.56	0.549
0.1 µM, coculture fibroblast: Hs27A	0.685	0.582	0.549	0.569	0.434	0.412	0.363	0.326	0.303
0.1 µM, coculture fibroblast: Hs343T	0.804	0.816	0.742	0.6932	0.643	0.61	0.567	0.534	0.521
0.1 µM, coculture fibroblast: WS1	0.842	0.754	0.698	0.627	0.568	0.518	0.47	0.431	0.405
1 µM, coculture fibroblast: C12385	0.819	0.767	0.695	0.617	0.54	0.491	0.452	0.405	0.384
1 µM, coculture fibroblast: H6013	0.74	0.698	0.667	0.659	0.599	0.586	0.542	0.53	0.489
1 µM, coculture fibroblast: H6019	0.772	0.699	0.66	0.602	0.566	0.543	0.496	0.451	0.41
1 µM, coculture fibroblast: H6076	0.79	0.753	0.709	0.681	0.635	0.625	0.602	0.59	0.597
1 µM, coculture fibroblast: H6231	0.786	0.7558	0.6852	0.621	0.571	0.542	0.5	0.465	0.456
1 µM, coculture fibroblast: HADF	0.737	0.672	0.635	0.627	0.543	0.521	0.487	0.462	0.433
1 µM, coculture fibroblast: HCFa	0.7702	0.688	0.644	0.615	0.532	0.504	0.4514	0.4177	0.3852
1 µM, coculture fibroblast: HCPF	0.7604	0.737	0.677	0.604	0.581	0.545	0.505	0.471	0.458
1 µM, coculture fibroblast: HHSteC	0.802	0.755	0.728	0.694	0.632	0.61	0.565	0.536	0.483
1 µM, coculture fibroblast: HMF	0.783	0.787	0.746	0.689	0.669	0.638	0.59	0.568	0.5508
1 µM, coculture fibroblast: HPFa	0.902	0.831	0.813	0.724	0.675	0.639	0.571	0.524	0.481
1 µM, coculture fibroblast: HUF	0.884	0.826	0.787	0.73	0.695	0.678	0.636	0.619	0.593
1 µM, coculture fibroblast: Hs5	0.85	0.79	0.776	0.774	0.682	0.663	0.638	0.6192	0.6136
1 µM, coculture fibroblast: Hs27A	0.735	0.673	0.616	0.618	0.497	0.489	0.444	0.415	0.385
1 µM, coculture fibroblast: Hs343T	0.7934	0.84	0.7703	0.664	0.651	0.596	0.538	0.508	0.475
1 µM, coculture fibroblast: WS1	0.7872	0.726	0.688	0.5987	0.542	0.505	0.462	0.428	0.398
